PubChem BioAssay AID1224826 | NIAID, 2016
Aim: 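Genes that change LPS-induced Tnf promoter activity in mouse macrophages when knocked down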 (primary screen). Cell system: RAW264.7 G9 macrophages from mouse bearing reporters for p65 (GFP) and the Tnf promoter (mCherry). Knock-down reagent: siRNA pool against mouse genes, 100 nM. Time to read-out: 16 h of LPS stimulation, after 2 days of siRNA transfection. Conditions: bacterial lipopolysaccharide (Salmonella minnesota R595), 10 ng/ml. Measurement: 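Imaged Tnf reporter mCherry in nuclei, minus background, normalised per plate to the median and expressed as robust z-scores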. Scale: Tnf reporter robust z-score: higher = stronger Tnf promoter reporter signal after LPS. Hit rule: 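a well counts as active at a score of -1.3 or below (Tlr4 knock-down control median) or above 3 (raised signal); controls and wells holding fewer than 50 cells are excluded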. Meaning of the calls: active = Tnf reporter clearly lowered or raised; inactive = no clear change in Tnf reporter.
Here is a random part of about 17,000 reagents. About 1,110 of all reagents (6.6%) count as active. 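Active means lowered or raised reporter signal; replicate intensities are raw and not normalised per plate.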 A number with no mark means an inactive call. Further read-outs or replicates are left out here.

With H2-Q6, what was measured?
Tnf reporter robust z-score: -0.72; fewer than 50 cells in well: enough cells in well

For Gzma, what does the deposit list?
Tnf reporter robust z-score: -0.42; fewer than 50 cells in well: enough cells in well

For Il1r1, what does the deposit list?
Tnf reporter robust z-score: -1.03; fewer than 50 cells in well: enough cells in well

With Clmb, how do the results read?
Tnf reporter robust z-score: 3.15 (active); fewer than 50 cells in well: enough cells in well

Laid out differently: 2 of the entries above.
gene | Tnf reporter robust z-score | fewer than 50 cells in well
H2-Q6 | -0.72 | enough cells in well
Gzma | -0.42 | enough cells in well

The listing continues:
What did the screen give for Lamb1?
Tnf reporter robust z-score: -0.82; fewer than 50 cells in well: enough cells in well

For Or52n20, how do the results read?
Tnf reporter robust z-score: -1.09; fewer than 50 cells in well: enough cells in well

For Or4n4b, what was measured?
fewer than 50 cells in well: fewer than 50 cells per well; well left out of calls

What is on record for Cox20?
fewer than 50 cells in well: fewer than 50 cells per well; well left out of calls

For Wdr26, what does the deposit list?
Tnf reporter robust z-score: -0.86; fewer than 50 cells in well: enough cells in well

What is on record for Pepd?
Tnf reporter robust z-score: -0.6; fewer than 50 cells in well: enough cells in well

How did the screen score Tmod3?
Tnf reporter robust z-score: 1.38; fewer than 50 cells in well: enough cells in well

With Dap3, how do the results read?
Tnf reporter robust z-score: 2.57; fewer than 50 cells in well: enough cells in well
